Source: patent publication US20180134765A1
These are yes or no findings as the source states them, for the method shown. Some binding calls cover weakened binding; strength is not graded here. Sequences can lack the tags named with a protein.

T1: murine NKG2D-Fc (mouse) (UniProt O54709)
T1 sequence (looked up): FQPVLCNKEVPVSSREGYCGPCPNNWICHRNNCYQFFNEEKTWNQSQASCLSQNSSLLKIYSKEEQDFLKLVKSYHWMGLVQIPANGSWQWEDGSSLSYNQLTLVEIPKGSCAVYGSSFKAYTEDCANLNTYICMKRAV


Legend:
murine NKG2D-Fc (mouse) [1] = target: T1, murine NKG2D-Fc (mouse); test: competition ELISA with mouse NKG2D-Fc on plate-coated MICA
murine NKG2D-Fc (mouse) [2] = target: T1, murine NKG2D-Fc (mouse); test: competition ELISA with murine NKG2D-Fc
murine NKG2D-Fc (mouse) [3] = target: T1, murine NKG2D-Fc (mouse); test: competition ELISA: variant titrated against mouse NKG2D-Fc binding to plate-coated MICA (competitor), detected with anti-Fc-HRP
murine NKG2D-Fc (mouse) [4] = target: T1, murine NKG2D-Fc (mouse); test: competition ELISA: protein titrated against mouse NKG2D-Fc binding to plate-coated MICA (competitor), detected with anti-Fc-HRP
MICA-Fc = test: ELISA: ligand-Fc coated at 2 ug/ml, biotinylated NKG2D ectodomain titrated, streptavidin-HRP

Binder	binding (murine NKG2D-Fc (mouse) [1])	binding (murine NKG2D-Fc (mouse) [2])	binding (murine NKG2D-Fc (mouse) [3])	binding (murine NKG2D-Fc (mouse) [4])	binding (MICA-Fc)
α1-α2 variant 15 (ligand) EPHSLRYNLTVLSWDGSVQSGFLTEVHLDGQPFLRCDRQKCRAKPQGQWAEDVLGNKTWDRETRDLTGWGKDLRMTLAHIKDQKEGLHSLQEIRVCEIHEDNSTRSSQHFYYDGELFLSQNLETNEWTMPQSSRAQTLAMNVRNFLKEDAMETDTHYHAMRADCLQELRRYLKSGVVLRRTVPPMVQVTRSEASGGSGDRVTITCRASQDVSTAVAWYQQKPGKAPKLLIYSASFLYSGVPSRFSGSGSGTDFTLTISSLQPEDFATYYCQQSYTTPPTFGQGTKVEIKGGSSRSSSSGGGGSGGGGEVQLVESGGGLVQPGGSLRLSCAASGFTFTSTGISWVRQAPGKGLEWVGRIYPTNGSTNYADSVKGRFTISADTSKNTAYLQMNSLRAEDTAVYYCARTYGIYDLYVDYTEYVMDYWGQGTLVTVSSGGSSRSSSSGGGGSGGGGDIQMTQSPSSLSASGGSGQITVTCRASGFYPWNITLSWRQDGVSLSHDTQQWGDVLPDGQGTYQTWVATRISQGEEQRFTCYMEHSGQHSTHPVPSGKGSHHHHHH	binds	binds	binds	–	–
α1-α2 variant 16 (ligand) EPHSLRYNLTVLSWDGSVQSGFLTEVHLDGQPFLRCDRQKCRAKPQGQWAEDVLGNKTWDRETRDLTGWGKDLRMTLAHIKDQKEGLHSLQEIRVCEIHEDNSTRSSQHFYYDGELFLSQNLETLEWTMPQSSRAQTLAMNVRNFLKEDAMETDTHYHAMRADCLQELRRYLKSGVVLRRTVPPMVQVTRSEASGGSGDRVTITCRASQDVSTAVAWYQQKPGKAPKLLIYSASFLYSGVPSRFSGSGSGTDFTLTISSLQPEDFATYYCQQSYTTPPTFGQGTKVEIKGGSSRSSSSGGGGSGGGGEVQLVESGGGLVQPGGSLRLSCAASGFTFTSTGISWVRQAPGKGLEWVGRIYPTNGSTNYADSVKGRFTISADTSKNTAYLQMNSLRAEDTAVYYCARTYGIYDLYVDYTEYVMDYWGQGTLVTVSSGGSSRSSSSGGGGSGGGGDIQMTQSPSSLSASGGSGQITVTCRASGFYPWNITLSWRQDGVSLSHDTQQWGDVLPDGQGTYQTWVATRISQGEEQRFTCYMEHSGQHSTHPVPSGKGSHHHHHH	binds	binds	binds	–	–
α1-α2 variant 17 (ligand) EPHSLRYNLTVLSWDGSVQSGFLTEVHLDGQPFLRCDRQKCRAKPQGQWAEDVLGNKTWDRETRDLTLWGKDLRMTLAHIKDQKEGLHSLQEIRVCEIHEDNSTRSSQHFYYDGELFLSQNLETLEWTMPQSSRAQTLAMNVRNFLKEDAMETDTHYHAMRADCLQELRRYLKSGVVLRRTVPPMVQVTRSEASGGSGDRVTITCRASQDVSTAVAWYQQKPGKAPKLLIYSASFLYSGVPSRFSGSGSGTDFTLTISSLQPEDFATYYCQQSYTTPPTFGQGTKVEIKGGSSRSSSSGGGGSGGGGEVQLVESGGGLVQPGGSLRLSCAASGFTFTSTGISWVRQAPGKGLEWVGRIYPTNGSTNYADSVKGRFTISADTSKNTAYLQMNSLRAEDTAVYYCARTYGIYDLYVDYTEYVMDYWGQGTLVTVSSGGSSRSSSSGGGGSGGGGDIQMTQSPSSLSASGGSGQITVTCRASGFYPWNITLSWRQDGVSLSHDTQQWGDVLPDGQGTYQTWVATRISQGEEQRFTCYMEHSGQHSTHPVPSGKGSHHHHHH	binds	binds	binds	–	–
α1-α2 variant 18 (ligand) EPHSLRYNLTVLSWDGSVQPGFLTEVHLDGQPFLRCDRQKCRAKPQGQWAEDVLGNKTWDRETRDLTLWGKDLRMTLAHIKDQKEGLHSLQEIRVCEIHEDNSTRSSQHFYYDGELFLSQNLETLEWTMPQSSRAQTLAMNVRNFLKEDAMETDTHYHAMRADCLQELRRYLKSGVVLRRTVPPMVQVTRSEASGGSGDRVTITCRASQDVSTAVAWYQQKPGKAPKLLIYSASFLYSGVPSRFSGSGSGTDFTLTISSLQPEDFATYYCQQSYTTPPTFGQGTKVEIKGGSSRSSSSGGGGSGGGGEVQLVESGGGLVQPGGSLRLSCAASGFTFTSTGISWVRQAPGKGLEWVGRIYPTNGSTNYADSVKGRFTISADTSKNTAYLQMNSLRAEDTAVYYCARTYGIYDLYVDYTEYVMDYWGQGTLVTVSSGGSSRSSSSGGGGSGGGGDIQMTQSPSSLSASGGSGQITVTCRASGFYPWNITLSWRQDGVSLSHDTQQWGDVLPDGQGTYQTWVATRISQGEEQRFTCYMEHSGQHSTHPVPSGKGSHHHHHH	binds	binds	binds	–	–
WT α1-α2 soluble MICA protein (Example 3) (ligand) EPHSLRYNLTVLSWDGSVQSGFLTEVHLDGQPFLRCDRQKCRAKPQGQWAEDVLGNKTWDRETRDLTGNGKDLRMTLAHIKDQKEGLHSLQEIRVCEIHEDNSTRSSQHFYYDGELFLSQNLETKEWTMPQSSRAQTLAMNVRNFLKEDAMKTKTHYHAMHADCLQELRRYLKSGVVLRRTVPPMVQVTRSEASGGSGDRVTITCRASQDVSTAVAWYQQKPGKAPKLLIYSASFLYSGVPSRFSGSGSGTDFTLTISSLQPEDFATYYCQQSYTTPPTFGQGTKVEIKGGSSRSSSSGGGGSGGGGEVQLVESGGGLVQPGGSLRLSCAASGFTFTSTGISWVRQAPGKGLEWVGRIYPTNGSTNYADSVKGRFTISADTSKNTAYLQMNSLRAEDTAVYYCARTYGIYDLYVDYTEYVMDYWGQGTLVTVSSGGSSRSSSSGGGGSGGGGDIQMTQSPSSLSASGGSGQITVTCRASGFYPWNITLSWRQDGVSLSHDTQQWGDVLPDGQGTYQTWVATRISQGEEQRFTCYMEHSGQHSTHPVPSGKGSHHHHHH	–	binds	–	binds	–
WED-MICA (ligand) EPHSLRYNLTVLSWDGSVQSGFLTEVHLDGQPFLRCDRQKCRAKPQGQWAEDVLGNKTWDRETRDLTGWGKDLRMTLAHIKDQKEGLHSLQEIRVCEIHEDNSTRSSQHFYYDGELFLSQNLETKEWTMPQSSRAQTLAMNVRNFLKEDAMETDTHYHAMHADCLQELRRYLKSGVVLRRTVPPMVQVTRSEASGGSGDRVTITCRASQDVSTAVAWYQQKPGKAPKLLIYSASFLYSGVPSRFSGSGSGTDFTLTISSLQPEDFATYYCQQSYTTPPTFGQGTKVEIKGGSSRSSSSGGGGSGGGGEVQLVESGGGLVQPGGSLRLSCAASGFTFTSTGISWVRQAPGKGLEWVGRIYPTNGSTNYADSVKGRFTISADTSKNTAYLQMNSLRAEDTAVYYCARTYGIYDLYVDYTEYVMDYWGQGTLVTVSSGGSSRSSSSGGGGSGGGGDIQMTQSPSSLSASGGSGQITVTCRASGFYPWNITLSWRQDGVSLSHDTQQWGDVLPDGQGTYQTWVATRISQGEEQRFTCYMEHSGQHSTHPVPSGKGSHHHHHH	–	binds	–	binds	–
His-avitag-natural NKG2D (receptor, biotin on the avitag sequence (BirA)) EPHHHHHHGLNDIFEAQKIEWHENSLFNQEVQIPLTESYCGPCPKNWICYKNNCYQFFDESKNWYESQASCMSQNASLLKVYSKEDQDLLKLVKSYHWMGLVHIPTNGSWQWEDGSILSPNLLTIIEMQKGDCALYASSFKGYIENCSTPNTYICMQRTV	–	–	–	–	binds
